{
  "source": "patent US6034097A",
  "about": "“Isoquinolines useful as analgesics” (Astra AB, priority 1996, dated 2000)",
  "data": [
    {"test": "In vitro stability in rat whole blood (RWB) at 37° C.", "type": "in vitro ADME", "conditions": "extraction of supernatant, HPLC", "method": "In vitro stability of the compounds of the invention in rat whole blood (RWB) at 37° C. and in kidney brush border protease (KBBP) at 37° C.\nThe compound was initially dissolved in water or in 10% methyl sulfoxide (DMSO)/water to make a stock solution of 10 mg/ml.\nThe stock solution was added to 15 ml of freshly harvested rat whole blood and incubated at 37° C.\nBlanks were prepared without spiking with compounds in rat whole blood.\nAliquots were then taken at specific time intervals, centrifuged, and a fraction of the supernatant was extracted with acetonitrile or with a solution of acetonitrile and 10% acetic acid.\nThe solvent(s) was(were) removed by evaporation. The resulting residue was analyzed by HPLC.", "values": [
      {"smiles": "Cc1cc(O)cc(C)c1C[C@H](N)C(=O)N1Cc2ccccc2C[C@H]1C(=O)NCC(O)Cc1ccccc1.O=C(O)C(F)(F)F", "note": "(stereo partly drawn) [4B, 2-S-(2-Amino-3-(4-hydroxy-2,6-dimethyl-phenyl)-propionyl)-1,2,3,4-tetrahydro-isoquinoline-3-S-carboxylic acid (2-hydroxy-3-phenyl-propyl)amide trifluoroacetic salt]", "% Extraction Efficiency": "66.7% ± 4.13"},
      {"smiles": "Cc1cc(O)cc(C)c1C[C@H](N)C(=O)N1Cc2ccccc2C[C@H]1C(=O)NCC(O)Cc1ccccc1.O=C(O)C(F)(F)F", "note": "(stereo partly drawn) [compound #4A, 2-S-(2-Amino-3-(4-hydroxy-2,6-dimethyl-phenyl)-propionyl)-1,2,3,4-tetrahydro-isoquinoline-3-S-carboxylic acid (2-hydroxy-3-phenyl-propyl)amide trifluoroacetic salt]", "% Extraction Efficiency": "93.3% ± 0.87"},
      {"smiles": "Cc1cc(O)cc(C)c1CC(N)C(=O)N1Cc2ccccc2C[C@H]1C(=O)NCCCc1ccccc1.O=C(O)C(F)(F)F", "note": "(stereo partly shown) [compound #5A, 2-(2-Amino-3-(4-Hydroxy-2,6-dimethyl-phenyl)-propionyl)-1,2,3,4-tetrahydro-isoquinoline-3-S-carboxylic acid (3-phenyl-propyl)amide trifluoroacetic salt]", "% Extraction Efficiency": "97.4% ± 2.7"},
      {"smiles": "Cc1cc(O)cc(C)c1CC(N)C(=O)N1Cc2ccccc2CC1C(=O)NCCCc1ccccc1.O=C(O)C(F)(F)F", "note": "(stereo not shown) [compound #5B, 2-(2-Amino-3-(4-Hydroxy-2,6-dimethyl-phenyl)-propionyl)-1,2,3,4-tetrahydro-isoquinoline-3-carboxylic acid (3-phenyl-propyl)amide trifluoroacetic salt]", "% Extraction Efficiency": "88.0% ± 0.4"}
    ]}
  ]
}
